Measurements from patent publication US20230210735A1, “PREVENTION, REDUCTION, OR AMELIORATION OF OLD PERSON SMELL” (Firmenich SA, priority 2020, published 2023).

Test: Sensory evaluation of rancidity in ranch salad dressing
Details: grade 1-5

Compound: CCCCCCCCCCN(C)C.O=C(O)C(=O)Cc1ccccc1 [DiMeC10A-PhPA]
- Average rancidity of treated oil (50 mins since addition): 1
- Average rancidity of treated oil (6 hrs since addition): 1
- Average rancidity of treated oil (26 hrs since addition): 1.5
